According to patent publication US20190092814A1 (priority 2017, published 2019):
Strings that start with PEPTIDE1 are HELM notation: dots part the residues, brackets hold end groups and non-standard residues.

Assay: peptide synthesis
Conditions: whole synthesis, HPLC and MALDI-TOF MS

Q: For “PEPTIDE1{G.K.K.Y.R.R.F.R.W.K.F.K.G.K.L.F.L.F.G.[am]}$$$$V2.0”, which “final HPLC purity” value is on record?
A: >95%
